Our source for the binding values is paper PMC4652203.

By UniProt entry, the sequences of proteins in these tests, tags left out. Residues count along the entry.
UniProt Q6UX06, residues 21-510: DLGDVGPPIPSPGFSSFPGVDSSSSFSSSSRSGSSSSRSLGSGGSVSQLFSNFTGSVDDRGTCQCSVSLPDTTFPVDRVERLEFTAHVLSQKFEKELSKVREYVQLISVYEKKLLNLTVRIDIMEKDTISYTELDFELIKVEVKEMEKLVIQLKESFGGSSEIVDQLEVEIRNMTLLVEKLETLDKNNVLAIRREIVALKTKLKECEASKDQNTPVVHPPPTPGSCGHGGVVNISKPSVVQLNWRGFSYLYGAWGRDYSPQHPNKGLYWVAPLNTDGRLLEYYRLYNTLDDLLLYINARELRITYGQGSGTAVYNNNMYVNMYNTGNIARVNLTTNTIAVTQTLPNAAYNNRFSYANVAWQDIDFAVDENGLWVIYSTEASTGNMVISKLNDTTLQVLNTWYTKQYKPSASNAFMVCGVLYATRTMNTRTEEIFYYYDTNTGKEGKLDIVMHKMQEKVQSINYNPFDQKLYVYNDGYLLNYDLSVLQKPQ
UniProt Q15465, residues 24-462: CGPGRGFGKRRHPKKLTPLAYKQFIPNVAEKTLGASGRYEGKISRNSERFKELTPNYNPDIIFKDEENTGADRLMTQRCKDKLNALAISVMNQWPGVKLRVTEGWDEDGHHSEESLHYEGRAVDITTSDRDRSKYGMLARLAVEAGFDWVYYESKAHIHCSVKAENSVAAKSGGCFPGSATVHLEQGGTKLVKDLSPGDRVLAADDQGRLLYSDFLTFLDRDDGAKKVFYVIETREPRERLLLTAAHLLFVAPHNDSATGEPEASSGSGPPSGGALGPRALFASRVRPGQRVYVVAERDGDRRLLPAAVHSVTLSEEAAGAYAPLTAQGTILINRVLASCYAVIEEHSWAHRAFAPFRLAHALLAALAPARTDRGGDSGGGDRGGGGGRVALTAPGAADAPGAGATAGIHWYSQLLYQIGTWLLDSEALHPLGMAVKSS

These are yes or no findings as the source states them, for the method shown. In cells and extracts the contact can be indirect. Some entries that bind do so weakly or less than the wild type.

For the experiment, the target named is OLFM4-V5 tag (full-length olfactomedin 4) (human) (UniProt Q6UX06). The experiment in a line: co-IP; lysates of stable PC-3 clones (500 ug in 0.5 mL) with 2 ug anti-V5 or anti-Flag (or normal IgG) for 3 h at 4 °C, then Protein G-Sepharose overnight at 4 °C; washed 3 times in lysis buffer; blot with anti-SHH.

Regarding “sonic hedgehog (SHH) protein (from UniProt Q15465 24-462)”, the binding result is “binds”.
